In the supplement of paper PMC10849652:
This is one part of the list.

The chains behind the UniProt entries cited, without tags or fusion partners. Where a name states a change or a piece, a line headed by the entry shows the natural chain unless it says otherwise.
UniProt P25705: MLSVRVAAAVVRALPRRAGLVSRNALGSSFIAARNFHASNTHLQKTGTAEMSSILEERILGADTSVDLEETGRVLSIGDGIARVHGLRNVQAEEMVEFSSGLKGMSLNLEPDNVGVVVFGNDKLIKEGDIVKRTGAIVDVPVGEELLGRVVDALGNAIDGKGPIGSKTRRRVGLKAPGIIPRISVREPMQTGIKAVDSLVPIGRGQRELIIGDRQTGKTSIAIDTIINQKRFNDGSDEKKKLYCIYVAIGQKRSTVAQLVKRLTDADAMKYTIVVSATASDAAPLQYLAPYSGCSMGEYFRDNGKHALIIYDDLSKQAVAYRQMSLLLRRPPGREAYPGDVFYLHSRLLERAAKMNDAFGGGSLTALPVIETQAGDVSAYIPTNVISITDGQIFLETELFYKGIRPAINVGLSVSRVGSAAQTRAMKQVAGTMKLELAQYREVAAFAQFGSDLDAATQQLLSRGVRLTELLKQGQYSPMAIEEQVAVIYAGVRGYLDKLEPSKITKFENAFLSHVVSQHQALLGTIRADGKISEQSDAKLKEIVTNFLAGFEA
UniProt Q96GX2: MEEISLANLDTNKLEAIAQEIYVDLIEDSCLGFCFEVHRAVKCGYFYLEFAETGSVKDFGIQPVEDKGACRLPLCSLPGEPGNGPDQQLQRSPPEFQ
UniProt Q6Y288: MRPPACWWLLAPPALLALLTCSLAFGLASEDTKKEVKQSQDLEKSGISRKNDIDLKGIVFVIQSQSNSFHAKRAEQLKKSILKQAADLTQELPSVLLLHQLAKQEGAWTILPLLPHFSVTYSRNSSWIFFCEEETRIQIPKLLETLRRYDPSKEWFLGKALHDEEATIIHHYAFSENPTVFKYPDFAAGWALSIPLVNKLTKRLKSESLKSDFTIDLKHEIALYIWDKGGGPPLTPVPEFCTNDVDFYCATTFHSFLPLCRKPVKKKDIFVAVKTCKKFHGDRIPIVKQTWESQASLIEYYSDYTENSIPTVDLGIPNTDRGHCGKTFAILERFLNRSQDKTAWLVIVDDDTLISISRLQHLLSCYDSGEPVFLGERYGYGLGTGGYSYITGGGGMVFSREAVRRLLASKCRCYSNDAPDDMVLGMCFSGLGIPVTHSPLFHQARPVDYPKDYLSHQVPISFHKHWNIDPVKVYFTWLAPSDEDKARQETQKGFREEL
UniProt Q9H7T9: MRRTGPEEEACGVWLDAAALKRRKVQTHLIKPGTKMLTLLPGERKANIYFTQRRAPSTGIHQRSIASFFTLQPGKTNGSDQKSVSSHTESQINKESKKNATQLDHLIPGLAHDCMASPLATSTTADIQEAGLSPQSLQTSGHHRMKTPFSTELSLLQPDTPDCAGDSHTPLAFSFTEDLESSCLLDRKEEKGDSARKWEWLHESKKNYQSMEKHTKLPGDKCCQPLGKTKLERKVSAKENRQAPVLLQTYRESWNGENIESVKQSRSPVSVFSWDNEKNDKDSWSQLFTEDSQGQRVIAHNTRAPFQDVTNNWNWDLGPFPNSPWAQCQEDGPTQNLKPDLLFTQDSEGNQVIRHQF
UniProt Q8NBU5: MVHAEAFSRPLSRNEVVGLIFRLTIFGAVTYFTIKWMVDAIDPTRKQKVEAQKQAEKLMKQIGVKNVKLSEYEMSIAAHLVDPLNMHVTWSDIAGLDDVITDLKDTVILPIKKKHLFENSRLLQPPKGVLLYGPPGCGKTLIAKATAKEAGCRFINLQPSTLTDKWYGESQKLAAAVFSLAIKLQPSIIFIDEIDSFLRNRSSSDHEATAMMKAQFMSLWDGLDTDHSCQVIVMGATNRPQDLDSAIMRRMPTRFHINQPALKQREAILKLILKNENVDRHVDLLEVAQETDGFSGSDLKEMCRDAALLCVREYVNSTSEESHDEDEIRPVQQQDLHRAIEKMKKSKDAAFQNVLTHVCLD
UniProt Q8WWM7: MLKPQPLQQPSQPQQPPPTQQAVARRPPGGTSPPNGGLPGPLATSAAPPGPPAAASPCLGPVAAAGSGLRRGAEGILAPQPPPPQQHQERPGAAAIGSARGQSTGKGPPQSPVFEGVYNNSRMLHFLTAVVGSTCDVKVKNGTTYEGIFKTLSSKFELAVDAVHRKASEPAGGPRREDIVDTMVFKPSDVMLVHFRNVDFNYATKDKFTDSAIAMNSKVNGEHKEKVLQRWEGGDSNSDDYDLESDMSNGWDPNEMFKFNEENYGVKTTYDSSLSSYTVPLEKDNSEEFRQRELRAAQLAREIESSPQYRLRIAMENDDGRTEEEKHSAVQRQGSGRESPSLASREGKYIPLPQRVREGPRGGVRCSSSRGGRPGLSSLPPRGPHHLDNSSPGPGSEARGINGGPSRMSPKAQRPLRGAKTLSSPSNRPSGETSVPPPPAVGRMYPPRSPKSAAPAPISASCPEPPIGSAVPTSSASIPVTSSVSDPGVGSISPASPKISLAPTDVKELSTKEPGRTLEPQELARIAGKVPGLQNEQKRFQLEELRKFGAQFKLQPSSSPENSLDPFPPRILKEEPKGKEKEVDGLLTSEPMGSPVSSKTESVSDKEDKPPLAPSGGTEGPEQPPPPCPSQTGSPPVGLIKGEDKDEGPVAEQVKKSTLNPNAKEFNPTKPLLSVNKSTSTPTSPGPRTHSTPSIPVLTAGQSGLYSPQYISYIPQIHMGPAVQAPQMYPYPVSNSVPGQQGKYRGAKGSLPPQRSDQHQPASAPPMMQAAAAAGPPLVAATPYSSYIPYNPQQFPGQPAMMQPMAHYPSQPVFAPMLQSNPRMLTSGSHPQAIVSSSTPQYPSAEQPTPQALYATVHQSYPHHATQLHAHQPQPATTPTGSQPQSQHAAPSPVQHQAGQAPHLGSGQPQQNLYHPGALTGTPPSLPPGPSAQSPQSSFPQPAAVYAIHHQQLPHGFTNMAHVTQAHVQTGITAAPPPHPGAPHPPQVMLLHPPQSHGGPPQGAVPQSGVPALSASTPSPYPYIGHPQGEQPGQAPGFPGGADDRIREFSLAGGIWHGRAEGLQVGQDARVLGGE
UniProt Q13825: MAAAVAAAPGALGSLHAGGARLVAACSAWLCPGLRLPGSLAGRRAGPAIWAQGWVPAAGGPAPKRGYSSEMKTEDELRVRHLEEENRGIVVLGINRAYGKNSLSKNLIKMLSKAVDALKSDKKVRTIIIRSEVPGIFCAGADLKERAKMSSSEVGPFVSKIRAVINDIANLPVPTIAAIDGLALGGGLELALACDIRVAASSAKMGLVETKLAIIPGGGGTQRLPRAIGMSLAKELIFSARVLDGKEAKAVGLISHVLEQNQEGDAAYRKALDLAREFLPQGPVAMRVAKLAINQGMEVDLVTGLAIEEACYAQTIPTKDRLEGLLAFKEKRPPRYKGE
UniProt P46100: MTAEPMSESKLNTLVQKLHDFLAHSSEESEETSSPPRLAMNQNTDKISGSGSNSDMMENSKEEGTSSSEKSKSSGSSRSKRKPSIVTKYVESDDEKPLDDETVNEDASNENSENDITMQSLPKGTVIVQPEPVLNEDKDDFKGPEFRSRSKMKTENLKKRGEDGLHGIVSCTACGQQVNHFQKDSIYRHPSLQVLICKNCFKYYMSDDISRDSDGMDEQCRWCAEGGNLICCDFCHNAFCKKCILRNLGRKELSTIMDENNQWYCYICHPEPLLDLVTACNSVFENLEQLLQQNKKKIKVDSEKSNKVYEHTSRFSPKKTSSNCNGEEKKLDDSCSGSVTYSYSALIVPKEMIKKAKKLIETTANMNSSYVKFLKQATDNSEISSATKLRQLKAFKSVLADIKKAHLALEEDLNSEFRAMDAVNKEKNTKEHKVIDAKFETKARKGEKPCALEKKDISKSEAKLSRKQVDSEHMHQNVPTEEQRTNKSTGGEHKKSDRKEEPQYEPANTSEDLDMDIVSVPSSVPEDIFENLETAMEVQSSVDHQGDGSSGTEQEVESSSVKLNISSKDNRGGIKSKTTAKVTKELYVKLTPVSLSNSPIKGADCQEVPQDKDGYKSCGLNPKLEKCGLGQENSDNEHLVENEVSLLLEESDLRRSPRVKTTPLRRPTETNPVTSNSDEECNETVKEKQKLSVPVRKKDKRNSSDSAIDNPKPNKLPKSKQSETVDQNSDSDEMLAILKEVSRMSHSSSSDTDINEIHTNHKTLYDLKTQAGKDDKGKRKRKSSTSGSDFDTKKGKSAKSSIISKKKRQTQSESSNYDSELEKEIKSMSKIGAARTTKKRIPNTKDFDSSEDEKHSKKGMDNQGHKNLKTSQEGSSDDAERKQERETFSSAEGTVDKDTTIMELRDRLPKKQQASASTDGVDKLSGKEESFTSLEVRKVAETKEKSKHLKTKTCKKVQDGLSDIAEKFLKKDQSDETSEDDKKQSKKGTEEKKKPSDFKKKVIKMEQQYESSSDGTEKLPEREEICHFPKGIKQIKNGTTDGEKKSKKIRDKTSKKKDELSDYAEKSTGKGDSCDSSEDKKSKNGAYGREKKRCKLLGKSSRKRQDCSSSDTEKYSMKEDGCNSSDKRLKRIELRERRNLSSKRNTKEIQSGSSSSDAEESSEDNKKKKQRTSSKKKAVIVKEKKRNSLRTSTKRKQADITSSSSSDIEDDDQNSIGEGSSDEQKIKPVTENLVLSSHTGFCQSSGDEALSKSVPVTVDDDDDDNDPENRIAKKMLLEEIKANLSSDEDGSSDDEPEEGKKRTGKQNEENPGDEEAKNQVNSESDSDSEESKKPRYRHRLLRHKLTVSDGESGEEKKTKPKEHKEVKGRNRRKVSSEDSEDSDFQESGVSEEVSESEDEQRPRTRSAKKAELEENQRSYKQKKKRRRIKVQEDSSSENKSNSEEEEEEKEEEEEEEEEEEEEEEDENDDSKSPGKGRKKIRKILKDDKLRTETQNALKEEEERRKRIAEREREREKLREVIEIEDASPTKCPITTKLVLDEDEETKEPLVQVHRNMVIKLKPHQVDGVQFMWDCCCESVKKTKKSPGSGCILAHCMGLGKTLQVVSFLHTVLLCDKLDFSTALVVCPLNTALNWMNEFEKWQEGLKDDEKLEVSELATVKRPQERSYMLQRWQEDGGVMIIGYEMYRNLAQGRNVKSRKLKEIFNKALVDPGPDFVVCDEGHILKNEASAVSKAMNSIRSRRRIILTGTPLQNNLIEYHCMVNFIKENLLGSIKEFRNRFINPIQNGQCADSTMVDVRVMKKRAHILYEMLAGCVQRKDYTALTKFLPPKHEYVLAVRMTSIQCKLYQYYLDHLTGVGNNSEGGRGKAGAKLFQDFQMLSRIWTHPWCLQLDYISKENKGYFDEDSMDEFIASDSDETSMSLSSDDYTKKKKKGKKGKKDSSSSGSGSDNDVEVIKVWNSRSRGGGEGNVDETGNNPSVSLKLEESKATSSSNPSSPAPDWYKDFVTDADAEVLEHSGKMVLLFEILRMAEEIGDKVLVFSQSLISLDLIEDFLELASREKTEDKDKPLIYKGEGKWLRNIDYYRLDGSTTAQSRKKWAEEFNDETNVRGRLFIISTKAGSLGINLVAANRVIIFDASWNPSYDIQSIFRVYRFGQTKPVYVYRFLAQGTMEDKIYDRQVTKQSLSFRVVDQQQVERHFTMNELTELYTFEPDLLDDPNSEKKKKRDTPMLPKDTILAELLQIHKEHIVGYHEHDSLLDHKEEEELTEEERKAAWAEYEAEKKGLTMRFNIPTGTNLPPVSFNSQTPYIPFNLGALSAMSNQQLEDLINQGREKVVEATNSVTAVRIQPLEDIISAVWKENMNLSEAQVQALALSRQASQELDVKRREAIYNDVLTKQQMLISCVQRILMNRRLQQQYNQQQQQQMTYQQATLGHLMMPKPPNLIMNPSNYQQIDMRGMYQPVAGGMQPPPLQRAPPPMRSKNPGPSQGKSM
UniProt Q00973: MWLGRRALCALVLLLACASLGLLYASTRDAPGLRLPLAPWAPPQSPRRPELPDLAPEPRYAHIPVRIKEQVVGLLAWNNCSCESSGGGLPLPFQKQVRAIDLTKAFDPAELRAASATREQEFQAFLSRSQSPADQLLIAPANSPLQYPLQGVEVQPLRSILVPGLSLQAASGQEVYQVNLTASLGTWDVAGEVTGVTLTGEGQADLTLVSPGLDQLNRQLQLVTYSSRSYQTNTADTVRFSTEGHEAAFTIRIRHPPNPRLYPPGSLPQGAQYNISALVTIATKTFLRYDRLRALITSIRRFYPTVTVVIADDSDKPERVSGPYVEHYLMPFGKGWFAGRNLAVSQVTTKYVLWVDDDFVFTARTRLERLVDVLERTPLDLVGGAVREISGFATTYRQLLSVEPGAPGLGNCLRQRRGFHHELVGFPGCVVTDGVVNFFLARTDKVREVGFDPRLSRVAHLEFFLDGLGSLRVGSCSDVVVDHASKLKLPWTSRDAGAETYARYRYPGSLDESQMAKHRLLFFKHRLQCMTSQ
UniProt P18847: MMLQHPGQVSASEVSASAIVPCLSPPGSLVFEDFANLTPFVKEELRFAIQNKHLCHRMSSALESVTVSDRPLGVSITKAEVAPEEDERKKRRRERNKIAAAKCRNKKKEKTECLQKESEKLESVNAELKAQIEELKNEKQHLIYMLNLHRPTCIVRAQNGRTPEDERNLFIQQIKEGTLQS

compound: CN1CC[C@H](c2c(O)cc(O)c3c(=O)cc(-c4ccccc4Cl)oc23)[C@H](O)C1 [alvocidib]; assay: log2 fold change, soluble protein after heating vs DMSO (PISA); higher = thermal stabilisation; K562 lysate, 10 uM; active = over 0.2 and 3.5 SD of the protein, either way, in both replicates (recomputed)
Procedure, shortened: (§1)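 Pellets of K562 cells were dounce-homogenised in PBS pH 7.4 with 1 mM MgCl2, and the crude extract was held at 1 mg/mL protein for a 30 min treatment with 10 μM compound. Aliquots were heated for 3 min over 48°C-58°C and pooled before NP-40 was added to 0.5% at 4°C. The supernatant from 21,000xg for 90 min was quantified by TMTpro 16plex LC-MS/MS with channel sums equalised. Values are reported from duplicates as log-two fold change in thermal stability relative to solvent controls.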

log2 fold change, inactive:
ATRN (UniProt O75882) -0.032, ATP5F1A (UniProt P25705) 0.017, ASCC2 (UniProt Q9H1I8) -0.009, ATXN7L3B (UniProt Q96GX2) 0.029, ASL (UniProt P04424) -0.021, ATG10 (UniProt Q9H0Y0) 0.106, ATF7IP2 (UniProt Q5U623) -0.197, B3GLCT (UniProt Q6Y288) -0.042, ATL2 (UniProt Q8NHH9) -0.063, ASPM (UniProt Q8IZT6) 0.017, ATE1 isoform 2 (UniProt O95260) -0.116, ASNA1 (UniProt O43681) 0.051, AUNIP isoform 2 (UniProt Q9H7T9) 0.086, ATAD1 (UniProt Q8NBU5) -0.047, AURKB isoform 5 (UniProt Q96GD4) -0.234, ATP6V0C (UniProt P27449) 0.003, ATXN1L (UniProt P0C7T5) 0.026, ATP7B (UniProt P35670) -0.052, ATXN2L (UniProt Q8WWM7) 0, ATXN2 (UniProt F8WB05) -0.051, AUH (UniProt Q13825) 0.221, ATRX (UniProt P46100) 0.018, ATXN2L (UniProt H3BUF6) -0.063, AXIN1 (UniProt O15169) -0.095, B4GALNT1 (UniProt Q00973) -0.137, B3GNT5 (UniProt Q9BYG0) 0.079, AVEN (UniProt Q9NQS1) -0.047, ATF3 (UniProt P18847) -0.128

compound: CN1CCc2c(c3ccccc3n2Cc2ccc(C(=O)NO)cc2)C1 [Tubastatin A]; assay: as above
Procedure, shortened: as §1

log2 fold change, inactive:
ATRN (UniProt O75882) -0.17, ATP5F1A (UniProt P25705) 0.06, ASCC2 (UniProt Q9H1I8) -0.105, ATXN7L3B (UniProt Q96GX2) 0.011, ASL (UniProt P04424) 0.043, ATG10 (UniProt Q9H0Y0) -0.035, ATF7IP2 (UniProt Q5U623) 0.071, B3GLCT (UniProt Q6Y288) 0.119, ATL2 (UniProt Q8NHH9) 0.099, ASPM (UniProt Q8IZT6) 0.016, ATE1 isoform 2 (UniProt O95260) -0.008, ASNA1 (UniProt O43681) -0.043, AUNIP isoform 2 (UniProt Q9H7T9) -0.148, ATAD1 (UniProt Q8NBU5) -0.016, ATP6V0C (UniProt P27449) -0.05, ATXN1L (UniProt P0C7T5) -0.019, ATXN2L (UniProt Q8WWM7) 0.038, ATXN2 (UniProt F8WB05) 0.23, AUH (UniProt Q13825) 0.147, ATRX (UniProt P46100) -0.111, AXIN1 (UniProt O15169) -0.038, ATRAID isoform 3 (UniProt Q6UW56) -0.022, B4GALNT1 (UniProt Q00973) 0.066, B3GNT5 (UniProt Q9BYG0) -0.013, AVEN (UniProt Q9NQS1) -0.154, ATF3 (UniProt P18847) 0.025, ATP1B2 (UniProt P14415) 0.068

compound: CNC(=O)C1=CC=CC=C1NC2=NC(=NC=C2Cl)NC3=C(C=C(C=C3)N4CCOCC4)OC; assay: as above
Procedure, shortened: as §1

log2 fold change, inactive:
ATRN (UniProt O75882) 0.015, ATP5F1A (UniProt P25705) -0.033, ASCC2 (UniProt Q9H1I8) 0.002, ATXN7L3B (UniProt Q96GX2) -0.048, ASL (UniProt P04424) 0.009, ATG10 (UniProt Q9H0Y0) 0.01, ATP5F1B (UniProt F8W0P7) 0.043, ATG14 (UniProt Q6ZNE5) -0.122, ATF7IP2 (UniProt Q5U623) -0.065, B3GLCT (UniProt Q6Y288) -0.007, ATL2 (UniProt Q8NHH9) 0.04, ASPM (UniProt Q8IZT6) 0.052, ATE1 isoform 2 (UniProt O95260) 0.036, ASNA1 (UniProt O43681) -0.014, AUNIP isoform 2 (UniProt Q9H7T9) 0.128, ATAD1 (UniProt Q8NBU5) 0.045, AURKB isoform 5 (UniProt Q96GD4) 0.449, ATP6V0C (UniProt P27449) -0.048, ATP7B (UniProt P35670) -0.012, ATXN2L (UniProt Q8WWM7) 0.147, ATXN2 (UniProt F8WB05) 0.101, AUH (UniProt Q13825) 0.057, ATRX (UniProt P46100) 0.179, ATXN2L (UniProt H3BUF6) 0.028, AXIN1 (UniProt O15169) 0.056, ATRAID isoform 3 (UniProt Q6UW56) -0.021, B4GALNT1 (UniProt Q00973) -0.017, B3GNT5 (UniProt Q9BYG0) -0.101, AVEN (UniProt Q9NQS1) 0.049, ATF3 (UniProt P18847) 0.082, ATP1B2 (UniProt P14415) 0.045
